No constants are given. Whether binding was seen depends on the method and setting. Binding seen in cells or lysates may run through a third protein. Some results given as binding are weak or reduced against the parent protein; the word gives no strength.
Biological target: polyoma middle T antigen (polyoma virus) (UniProt P03077)
Experiment: co-IP; PyMT immunoprecipitated with rat anti-PyMT plus Protein G-Sepharose (2 h, 4 °C) from RIPA buffer (0.1% SDS) lysates of tumors of wild-type and Net1 knockout MMTV-PyMT mice; normal rat IgG as control; western blot

Sequences of proteins named here, by UniProt entry; tags and fusion partners are left off.
UniProt P03077: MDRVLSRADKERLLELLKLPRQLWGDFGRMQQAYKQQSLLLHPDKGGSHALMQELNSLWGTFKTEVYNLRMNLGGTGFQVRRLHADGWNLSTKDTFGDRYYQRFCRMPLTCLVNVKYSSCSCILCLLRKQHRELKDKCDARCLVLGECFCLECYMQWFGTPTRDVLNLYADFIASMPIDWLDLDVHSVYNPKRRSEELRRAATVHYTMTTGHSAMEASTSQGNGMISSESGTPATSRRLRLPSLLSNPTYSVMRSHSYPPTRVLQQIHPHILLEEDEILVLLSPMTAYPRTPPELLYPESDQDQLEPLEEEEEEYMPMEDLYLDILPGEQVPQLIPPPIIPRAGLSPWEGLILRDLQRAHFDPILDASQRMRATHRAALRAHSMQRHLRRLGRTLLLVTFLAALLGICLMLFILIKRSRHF
UniProt P26450: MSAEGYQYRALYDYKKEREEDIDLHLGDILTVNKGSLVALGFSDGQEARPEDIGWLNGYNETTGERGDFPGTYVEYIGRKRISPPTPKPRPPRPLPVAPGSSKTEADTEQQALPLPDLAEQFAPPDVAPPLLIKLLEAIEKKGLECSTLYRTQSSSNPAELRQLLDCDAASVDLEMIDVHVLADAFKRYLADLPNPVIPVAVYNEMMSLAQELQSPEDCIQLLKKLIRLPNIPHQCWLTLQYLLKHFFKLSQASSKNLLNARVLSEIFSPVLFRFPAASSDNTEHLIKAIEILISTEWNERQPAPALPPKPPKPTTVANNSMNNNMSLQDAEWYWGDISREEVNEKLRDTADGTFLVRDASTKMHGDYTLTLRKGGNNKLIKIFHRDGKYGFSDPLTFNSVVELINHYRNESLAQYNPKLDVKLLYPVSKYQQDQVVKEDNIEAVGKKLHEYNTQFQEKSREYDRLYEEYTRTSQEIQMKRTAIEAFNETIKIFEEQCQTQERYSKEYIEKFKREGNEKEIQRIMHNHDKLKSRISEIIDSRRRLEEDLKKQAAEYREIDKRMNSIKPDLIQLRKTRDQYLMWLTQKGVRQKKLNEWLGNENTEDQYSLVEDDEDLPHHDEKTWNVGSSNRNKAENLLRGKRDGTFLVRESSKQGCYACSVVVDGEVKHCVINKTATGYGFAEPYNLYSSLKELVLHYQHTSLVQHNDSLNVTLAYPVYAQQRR

With “phosphatidylinositol 3-kinase regulatory subunit p85α (from UniProt P26450 1-724)” the binding was “binds”.

Reference: paper PMC5956559
